For part of these data: The same purity stands for every peptide and may come from a single statement. For part of these data: Strings that start with PEPTIDE1 are HELM notation: dots part the residues, brackets hold end groups and non-standard residues.
Key:
[1] = general procedure: Fmoc solid-phase peptide synthesis; TentaGel HL NH2 with HMBA linker; HCTU/NMM; details: for crude mass / crude yield: whole synthesis; for crude yield: scale of the general procedure 30 mg resin per peptide
[2] = peptide made by a vendor (peptide synthesis; TentaGel HL NH2 with HMBA linker; HCTU/NMM); details: whole synthesis, scale of the general procedure 30 mg resin per peptide

Substance: ADAMTS4-specific probe (Eu)
- step yield ([1]; late stage modification step): 60% yield

Substance: DOTA-ADAMTS4-specific peptide
- final purity (method not given) [2]: >95%

Substance: FAM-5-ADAMTS4-specific peptide
- final purity (method not given) [2]: >95%

Substance: PEPTIDE1{C.S.R.R.G.C.S.[TTDS].[TTDS].S.R.G.[am]}$PEPTIDE1,PEPTIDE1,1:R3-6:R3$$$V2.0
- crude mass [1]: 17 mg
- crude yield [1]: 71%

Substance: PEPTIDE1{C.F.H.P.Y.C.S.[TTDS].[TTDS].S.R.G.[am]}$PEPTIDE1,PEPTIDE1,1:R3-6:R3$$$V2.0
- crude mass [1]: 17 mg
- crude yield [1]: 68%

Substance: ADAMTS4-specific peptide Cy5
- final purity (method not given) [2]: >95%

Substance: ADAMTS4-specific peptide FAM-5
- final purity (method not given) [2]: >95%

— publication PMC9126943 (Nature Communications, 2022)
